Assay results from US9630896B2, “2,5-dialkyl-4-H/halo/ether-phenol compounds” (Tansna Therapeutics Inc, priority 2013, dated 2017).

Tested on: 6 Hz 32 mA Epilepsy Model (electrically induced psychomotor seizure)
Experiment: Minimal clonic seizure (6 Hz, 32 mA) test
Type: in vivo, Mouse
Details: 6 Hz 32 mA dose response (Test 7-2); TD50 relative to ED50
From the text: 1. Minimal Clonic Seizure (6 Hz, 32 mA or 44 mA) Test
Test compounds are pre-administered to mice via i.p. injection. At varying times, individual mice (four per time point) are challenged with sufficient current delivered through corneal electrodes to elicit a psychomotor seizure in 97% of animals (32 mA or 44 mA for 3 s) (Toman J E P, Everett G M, Richards R K: The Search for New Drugs against Epilepsy. Texas Reports on Biology and Medicine 1952; 10:96-104). Untreated mice will display seizures characterized by a minimal clonic phase followed by stereotyped, automatistic behaviors described originally as being similar to the aura of human patients with partial seizures. Animals not displaying this behavior are considered protected. The test compounds are evaluated quantitatively by measuring the responses at varying doses at a determined time of peak effect (TPE).

SMILES	Protective Index (PI)
Cc1cc(Br)c(C(C)C)cc1O [Ex. 9, 4-bromo-5-isopropyl-2-methyl phenol]	21.5
Cc1cc(O)c(C(C)C)cc1Br [Ex. 132, 4-Bromo-2-isopropyl-5-methyl-phenol]	>7.3
